Tested on: HT-29 colon carcinoma cells
Assay: Sub-cellular localization by fluorescent microscopy, HT-29
Format: cell-based, human

Cc1[nH]c2ccccc2c1-c1nc2c3cccnc3c3ncccc3c2[nH]1 [Compound 3]
time to enter the cell (HT-29, 10 or 25 μM): ≤ 5 min
sub-cellular localization (HT-29, 5 minutes of treatment): evenly distributed throughout the nucleus and cytoplasm
sub-cellular localization (HT-29, 4 hours of treatment): localized predominantly around the outside of the nucleus (perinuclear region)

From patent US8148392B2, “2-indolyl imidazo [4,5-d] phenanthroline derivatives and their use in the treatment of cancer” (Lorus Therapeutics Inc., priority 2005, dated 2012)
